Results are given in words; binding and its absence hold for the method and conditions named. In cells and extracts the contact can be indirect. Here binding means that the protein was enriched with, or labelled near, the bait; the list need not be complete.
Columns and labels:
[1] = biological target: human mtSOD1-L126delTT with a FLAG sequence at the C terminus (human) (UniProt P00441); assay: affinity purification with mass spectrometry; anti-FLAG M2 IP (5 ug antibody, protein A/G magnetic beads) from the cytosolic fraction of DF7 cells (500 ug total protein); DIA proteomics; no control IP told for this fraction
[2] = biological target: human mtSOD1-L126delTT with a FLAG sequence at the C terminus (human) (UniProt P00441); assay: affinity purification with mass spectrometry; anti-FLAG M2 IP (5 ug antibody, protein A/G magnetic beads) from the nuclear fraction of DF7 cells (500 ug total protein); control IP with monoclonal mouse IgG (MOPC 21); DIA proteomics; hits: log2 FC >= 2 over control or missing in the control IP

Amino acid sequences for entries named in this document (tags omitted). A change or cut given only in a name is not applied to a line headed by its entry. Residues count along the entry.
UniProt P00441: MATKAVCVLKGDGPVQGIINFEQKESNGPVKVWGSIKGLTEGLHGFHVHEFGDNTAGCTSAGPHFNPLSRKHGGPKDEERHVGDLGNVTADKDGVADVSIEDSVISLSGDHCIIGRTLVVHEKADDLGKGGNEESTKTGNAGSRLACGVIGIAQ
UniProt P07724, residues 25-608: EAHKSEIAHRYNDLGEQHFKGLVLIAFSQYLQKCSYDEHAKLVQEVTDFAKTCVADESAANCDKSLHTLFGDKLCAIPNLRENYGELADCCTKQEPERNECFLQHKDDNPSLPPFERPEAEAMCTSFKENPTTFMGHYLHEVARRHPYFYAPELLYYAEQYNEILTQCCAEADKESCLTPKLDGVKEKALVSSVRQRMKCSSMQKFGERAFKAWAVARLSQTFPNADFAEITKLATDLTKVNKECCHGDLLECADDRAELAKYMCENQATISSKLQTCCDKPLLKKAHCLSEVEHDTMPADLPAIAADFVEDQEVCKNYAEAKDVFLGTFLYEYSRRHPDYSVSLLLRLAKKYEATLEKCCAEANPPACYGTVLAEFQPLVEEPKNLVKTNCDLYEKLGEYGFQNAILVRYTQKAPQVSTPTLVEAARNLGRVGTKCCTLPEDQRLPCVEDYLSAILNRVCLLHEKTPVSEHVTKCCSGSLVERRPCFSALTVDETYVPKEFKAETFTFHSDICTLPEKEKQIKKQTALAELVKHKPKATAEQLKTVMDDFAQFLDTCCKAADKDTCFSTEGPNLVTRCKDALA
UniProt Q9ERG0: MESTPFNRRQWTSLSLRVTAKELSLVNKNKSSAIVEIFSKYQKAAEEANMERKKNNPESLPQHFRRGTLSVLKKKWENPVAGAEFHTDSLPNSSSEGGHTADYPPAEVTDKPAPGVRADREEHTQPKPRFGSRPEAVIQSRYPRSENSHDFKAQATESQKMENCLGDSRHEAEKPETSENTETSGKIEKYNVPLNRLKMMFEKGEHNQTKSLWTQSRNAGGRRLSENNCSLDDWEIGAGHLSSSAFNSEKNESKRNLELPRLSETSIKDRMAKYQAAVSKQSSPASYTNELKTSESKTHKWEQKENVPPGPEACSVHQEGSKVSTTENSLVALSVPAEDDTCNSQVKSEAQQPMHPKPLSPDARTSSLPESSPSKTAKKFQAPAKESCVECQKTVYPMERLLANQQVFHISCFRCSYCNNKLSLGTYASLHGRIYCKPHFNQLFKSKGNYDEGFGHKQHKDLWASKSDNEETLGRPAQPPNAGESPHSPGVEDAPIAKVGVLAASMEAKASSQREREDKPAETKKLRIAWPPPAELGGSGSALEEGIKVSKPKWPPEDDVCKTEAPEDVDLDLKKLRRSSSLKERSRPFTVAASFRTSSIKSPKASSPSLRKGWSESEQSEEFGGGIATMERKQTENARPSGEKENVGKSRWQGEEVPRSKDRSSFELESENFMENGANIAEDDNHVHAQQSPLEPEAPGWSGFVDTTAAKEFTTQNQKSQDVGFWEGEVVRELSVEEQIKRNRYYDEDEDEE
UniProt O08638: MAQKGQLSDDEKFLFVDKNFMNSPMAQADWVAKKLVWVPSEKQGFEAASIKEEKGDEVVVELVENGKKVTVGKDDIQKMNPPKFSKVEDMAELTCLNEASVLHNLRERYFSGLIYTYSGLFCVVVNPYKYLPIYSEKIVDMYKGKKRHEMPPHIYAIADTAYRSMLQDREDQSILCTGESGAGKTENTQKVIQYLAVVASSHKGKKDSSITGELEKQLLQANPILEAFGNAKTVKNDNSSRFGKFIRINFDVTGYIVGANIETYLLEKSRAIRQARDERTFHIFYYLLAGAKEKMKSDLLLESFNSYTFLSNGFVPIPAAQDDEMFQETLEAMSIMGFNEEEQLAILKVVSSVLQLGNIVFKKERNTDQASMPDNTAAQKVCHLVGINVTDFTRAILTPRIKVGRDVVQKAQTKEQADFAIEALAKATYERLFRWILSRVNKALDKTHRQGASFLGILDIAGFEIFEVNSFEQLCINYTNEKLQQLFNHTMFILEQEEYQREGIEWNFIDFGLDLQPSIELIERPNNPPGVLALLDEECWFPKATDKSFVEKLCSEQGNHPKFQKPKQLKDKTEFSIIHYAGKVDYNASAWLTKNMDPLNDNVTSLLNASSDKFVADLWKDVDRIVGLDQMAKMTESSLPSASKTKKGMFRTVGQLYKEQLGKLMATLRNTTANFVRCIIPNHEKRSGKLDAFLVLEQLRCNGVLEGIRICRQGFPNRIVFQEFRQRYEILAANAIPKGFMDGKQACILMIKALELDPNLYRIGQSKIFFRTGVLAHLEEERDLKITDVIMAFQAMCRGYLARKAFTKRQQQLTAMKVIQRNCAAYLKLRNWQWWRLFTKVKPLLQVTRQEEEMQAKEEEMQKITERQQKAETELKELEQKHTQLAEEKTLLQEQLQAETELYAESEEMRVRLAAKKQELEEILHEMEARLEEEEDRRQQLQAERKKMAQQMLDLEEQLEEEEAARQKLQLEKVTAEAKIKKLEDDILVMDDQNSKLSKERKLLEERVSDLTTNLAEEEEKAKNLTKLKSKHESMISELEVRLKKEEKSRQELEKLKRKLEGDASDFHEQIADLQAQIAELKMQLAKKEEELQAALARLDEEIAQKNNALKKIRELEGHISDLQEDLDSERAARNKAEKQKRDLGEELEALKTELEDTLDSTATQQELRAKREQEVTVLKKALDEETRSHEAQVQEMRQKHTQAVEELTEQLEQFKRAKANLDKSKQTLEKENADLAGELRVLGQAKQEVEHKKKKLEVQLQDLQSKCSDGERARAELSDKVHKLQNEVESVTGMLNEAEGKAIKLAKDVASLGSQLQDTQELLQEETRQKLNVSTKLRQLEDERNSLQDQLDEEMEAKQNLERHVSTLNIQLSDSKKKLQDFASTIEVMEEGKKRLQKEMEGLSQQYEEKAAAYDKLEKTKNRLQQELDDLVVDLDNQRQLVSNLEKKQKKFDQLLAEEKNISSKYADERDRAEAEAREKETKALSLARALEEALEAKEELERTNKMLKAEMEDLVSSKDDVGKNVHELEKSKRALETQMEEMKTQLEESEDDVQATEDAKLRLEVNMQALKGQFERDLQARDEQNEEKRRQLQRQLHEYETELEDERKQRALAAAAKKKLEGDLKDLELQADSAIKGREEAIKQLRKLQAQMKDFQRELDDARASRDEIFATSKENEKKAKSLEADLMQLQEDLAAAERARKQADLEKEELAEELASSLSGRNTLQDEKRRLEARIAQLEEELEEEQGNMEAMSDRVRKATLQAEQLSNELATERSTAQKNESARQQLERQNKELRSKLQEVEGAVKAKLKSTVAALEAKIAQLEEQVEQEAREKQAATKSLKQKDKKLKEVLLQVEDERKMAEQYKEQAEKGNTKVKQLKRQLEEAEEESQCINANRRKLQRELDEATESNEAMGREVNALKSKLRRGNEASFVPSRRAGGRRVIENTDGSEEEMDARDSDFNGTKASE
UniProt P11276, residues 33-2477: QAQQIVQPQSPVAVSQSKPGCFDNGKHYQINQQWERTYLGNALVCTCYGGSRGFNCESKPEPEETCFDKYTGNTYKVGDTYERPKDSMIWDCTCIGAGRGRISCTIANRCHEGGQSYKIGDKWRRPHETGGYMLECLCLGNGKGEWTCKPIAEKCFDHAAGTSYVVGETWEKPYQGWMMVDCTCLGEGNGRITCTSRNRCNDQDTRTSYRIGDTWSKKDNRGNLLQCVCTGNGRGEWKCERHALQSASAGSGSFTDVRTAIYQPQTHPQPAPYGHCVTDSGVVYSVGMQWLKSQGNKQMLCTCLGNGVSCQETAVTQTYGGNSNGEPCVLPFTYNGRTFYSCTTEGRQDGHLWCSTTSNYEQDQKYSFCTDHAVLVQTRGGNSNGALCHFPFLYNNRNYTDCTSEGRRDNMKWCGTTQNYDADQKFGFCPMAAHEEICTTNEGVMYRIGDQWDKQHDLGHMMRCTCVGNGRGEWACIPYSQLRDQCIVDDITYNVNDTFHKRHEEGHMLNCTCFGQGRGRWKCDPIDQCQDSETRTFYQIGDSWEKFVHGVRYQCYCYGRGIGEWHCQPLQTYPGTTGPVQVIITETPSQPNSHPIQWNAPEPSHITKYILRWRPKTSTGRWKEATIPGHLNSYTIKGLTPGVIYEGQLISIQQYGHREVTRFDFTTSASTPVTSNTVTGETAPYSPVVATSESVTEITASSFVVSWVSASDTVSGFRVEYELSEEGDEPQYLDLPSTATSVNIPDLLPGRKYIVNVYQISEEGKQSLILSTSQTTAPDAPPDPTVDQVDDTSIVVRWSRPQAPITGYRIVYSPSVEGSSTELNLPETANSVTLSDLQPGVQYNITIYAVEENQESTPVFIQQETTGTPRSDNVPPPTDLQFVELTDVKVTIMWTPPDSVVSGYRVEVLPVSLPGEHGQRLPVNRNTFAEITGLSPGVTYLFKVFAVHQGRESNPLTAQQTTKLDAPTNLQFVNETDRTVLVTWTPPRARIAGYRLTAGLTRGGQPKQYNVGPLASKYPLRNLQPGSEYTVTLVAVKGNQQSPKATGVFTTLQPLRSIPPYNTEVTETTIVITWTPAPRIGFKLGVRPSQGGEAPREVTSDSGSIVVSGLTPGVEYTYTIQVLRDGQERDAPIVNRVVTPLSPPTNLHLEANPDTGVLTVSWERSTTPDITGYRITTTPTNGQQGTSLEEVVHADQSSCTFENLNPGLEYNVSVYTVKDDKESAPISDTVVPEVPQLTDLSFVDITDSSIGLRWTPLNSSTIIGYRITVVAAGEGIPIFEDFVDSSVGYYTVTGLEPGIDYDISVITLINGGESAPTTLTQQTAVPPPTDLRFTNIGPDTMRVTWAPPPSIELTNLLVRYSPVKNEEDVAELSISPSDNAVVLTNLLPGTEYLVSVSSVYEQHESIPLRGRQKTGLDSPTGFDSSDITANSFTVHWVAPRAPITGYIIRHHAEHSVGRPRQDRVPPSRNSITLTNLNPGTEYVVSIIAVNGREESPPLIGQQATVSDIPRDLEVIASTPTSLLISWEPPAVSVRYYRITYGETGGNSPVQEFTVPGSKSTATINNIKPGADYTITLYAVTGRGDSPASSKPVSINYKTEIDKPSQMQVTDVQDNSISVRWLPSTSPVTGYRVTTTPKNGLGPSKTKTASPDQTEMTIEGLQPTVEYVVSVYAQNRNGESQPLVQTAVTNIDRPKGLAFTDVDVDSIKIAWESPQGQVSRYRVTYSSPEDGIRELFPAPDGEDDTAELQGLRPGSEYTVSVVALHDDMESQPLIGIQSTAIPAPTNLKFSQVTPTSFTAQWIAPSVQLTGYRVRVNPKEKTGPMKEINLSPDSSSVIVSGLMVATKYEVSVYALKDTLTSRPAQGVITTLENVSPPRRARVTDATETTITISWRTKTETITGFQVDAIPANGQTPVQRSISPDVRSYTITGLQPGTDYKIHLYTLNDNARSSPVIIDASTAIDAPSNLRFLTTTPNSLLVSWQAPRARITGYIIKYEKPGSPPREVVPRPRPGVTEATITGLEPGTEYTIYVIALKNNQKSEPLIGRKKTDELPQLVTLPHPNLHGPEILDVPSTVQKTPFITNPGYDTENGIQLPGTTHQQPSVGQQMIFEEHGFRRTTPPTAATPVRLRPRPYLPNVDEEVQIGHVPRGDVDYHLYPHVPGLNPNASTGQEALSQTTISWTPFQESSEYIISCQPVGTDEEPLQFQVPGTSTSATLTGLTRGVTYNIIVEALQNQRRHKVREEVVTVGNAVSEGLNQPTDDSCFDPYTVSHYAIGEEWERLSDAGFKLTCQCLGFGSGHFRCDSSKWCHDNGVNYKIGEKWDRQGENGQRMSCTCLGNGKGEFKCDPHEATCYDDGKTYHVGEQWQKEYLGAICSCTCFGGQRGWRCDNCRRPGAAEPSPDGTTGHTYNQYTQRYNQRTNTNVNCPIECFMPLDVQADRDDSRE

Row | binding [1] | binding [2] | Molecule
1 | binds | – | Albumin (from UniProt P07724 25-608)
2 | binds | – | E3 ubiquitin-protein ligase TRIP12 (from UniProt G5E870 1-2025)
3 | binds | – | AHNAK nucleoprotein (desmoyokin) (from UniProt E9Q616 1-5656)
4 | binds | – | LIM domain and actin-binding protein 1 (from UniProt Q9ERG0 1-753)
5 | binds | – | Myosin-11 (from UniProt O08638 1-1972)
6 | binds | – | Fibronectin (from UniProt P11276 33-2477)
7 | binds | – | Phosphate carrier protein, mitochondrial (protein, UniProt Q8VEM8 46-357) AVEEYSCEFGSMKYYALCGFGGVLSCGLTHTAVVPLDLVKCRMQVDPQKYKGIFNGFSITLKEDGVRGLAKGWAPTLIGYSMQGLCKFGFYEVFKALYSNILGEENTYLWRTSLYLASSASAEFFADIALAPMEAAKVRIQTQPGYANTLREAVPKMYKEEGLNAFYKGVAPLWMRQIPYTMMKFACFERTVEALYKFVVPKPRSECTKAEQLVVTFVAGYIAGVFCAIVSHPADSVVSVLNKEKGSTASQVLQRLGFRGVWKGLFARIIMIGTLTALQWFIYDSVKVYFRLPRPPPPEMPESLKKKLGLTE
8 | binds | – | ADP/ATP translocase 1 (protein, UniProt P48962 1-298) MGDQALSFLKDFLAGGIAAAVSKTAVAPIERVKLLLQVQHASKQISAEKQYKGIIDCVVRIPKEQGFLSFWRGNLANVIRYFPTQALNFAFKDKYKQIFLGGVDRHKQFWRYFAGNLASGGAAGATSLCFVYPLDFARTRLAADVGKGSSQREFNGLGDCLTKIFKSDGLKGLYQGFSVSVQGIIIYRAAYFGVYDTAKGMLPDPKNVHIIVSWMIAQSVTAVAGLVSYPFDTVRRRMMMQSGRKGADIMYTGTLDCWRKIAKDEGANAFFKGAWSNVLRGMGGAFVLVLYDEIKKYV
9 | binds | – | Myosin light polypeptide 6 (protein, UniProt Q60605 1-151) MCDFTEDQTAEFKEAFQLFDRTGDGKILYSQCGDVMRALGQNPTNAEVLKVLGNPKSDEMNVKVLDFEHFLPMLQTVAKNKDQGTYEDYVEGLRVFDKEGNGTVMGAEIRHVLVTLGEKMTEEEVEMLVAGHEDSNGCINYEAFVRHILSG
10 | – | binds | Srrt (protein, UniProt Q99MR6 1-875) MGDSDDEYDRRRRDKFRRERSDYDRSRERDERRRGDDWNDREWDRGRERRSRGEYRDYDRNRRERFSPPRHELSPPQKRMRRDWDEHSSDPYHSGYDMPYAGGGGGPTYGPPQPWGHPDVHIMQHHVLPIQARLGSIAEIDLGVPPPIMKSFKEFLLSLDDSVDETEAVKRYNDYKLDFRRQQMQDFFLAHKDEEWFRSKYHPDEVGKRRQEARGALQNRLKVFLSLMESGWFDNLLLDIDKADAIVKMLDAAVIKMEGGTENDLRILEQEEEEEQAGKTGEASKKEEARAGPALGEGERKANDKDEKKEDGKQAENDSSNDDKTKKSEGDGDKEEKKEEAEKEAKKSKKRNRKQSGDDSFDEGSVSESESESEGGQAEEEKEEAEEALKEKEKPKEEEKEKPKDAAGLECKPRPLHKTCSLFMRNIAPNISRAEIISLCKRYPGFMRVALSEPQPERRFFRRGWVTFDRSVNIKEICWNLQNIRLRECELSPGVNRDLTRRVRNINGITQHKQIVRNDIKLAAKLIHTLDDRTQLWASEPGTPPVPTSLPSQNPILKNITDYLIEEVSAEEEELLGSSGGPPPEEPPKEGNPAEINVERDEKLIKVLDKLLLYLRIVHSLDYYNTCEYPNEDEMPNRCGIIHVRGPMPPNRISHGEVLEWQKTFEEKLTPLLSVRESLSEEEAQKMGRKDPEQEVEKFVTSNTQELGKDKWLCPLSGKKFKGPEFVRKHIFNKHAEKIEEVKKEVAFFNNFLTDAKRPALPEIKPAQPPGPAQILPPGLTPGLPYPHQTPQGLMPYGQPRPPILGYGAGAVRPAVPTGGPPYPHAPYGAGRGNYDAFRGQGGYPGKPRNRMVRGDPRAIVEYRDLDAPDDVDFF
11 | – | binds | Ssb (protein, UniProt P32067 1-415) MAENGDNEKMTALEAKICHQIEYYFGDFNLPRDKFLKEQIKLDEGWVPLETMIKFNRLNRLTTDFNVIVQALSKSKAKLMEVSADKTKIRRSPSRPLPEVTDEYKNDVKNRSVYIKGFPTDATLDDIKEWLDDKGQILNIQMRRTLHKTFKGSIFAVFDSIQSAKKFVEIPGQKYKDTNLLILFKEDYFAKKNEERKQSKVEAKLKAKQEHEGRHKPGSTETRALEGKMGCLLKFSGDLDDQTCREDLHFLFSNHGEIKWVDFARGAKEGIILFKEKAKEALEKARNANNGNLLLRNKKVTWKVLEGHAEKEALKKITDDQQESLNKWKSKGGHAGGRFKGSHVFTAARRFKGKGKGNRPGYAGAPKGRGQFHGRRTRFDDDDRRRGPMKRGRDGRDREEPASKHKKRENGARDK
12 | – | binds | Zc3hav1 (protein, UniProt Q3UPF5 1-996) MTDPEVFCFITKILCAHGGRMTLEELLGEISLPEAQLYELLKAAGPDRFVLLETGDQAGITRSVVATTRARVCRRKYCQRPCDSLHLCKLNLLGRCHYAQSQRNLCKYSHDVLSEQNFQVLKNHELSGLNQEELAVLLVQSDPFFMPEICKSYKGEGRKQICGQPQPCERLHICEHFTRGNCSYLNCLRSHNLMDRKVLAIMREHGLSSDVVQNIQDICNNKHTRRNPPSMRAPHPHRRGGAHRDRSKSRDRFHHNSLEVLSTVSPLGSGPPSPDVTGCKDPLEDVSADVTQKFKYLGTQDRAQLSSVSSKAAGVRGPSQMRASQEFLEDGDPDGLFSRNRSDSSTSRTSAAGFPLVAAQRNEAGAMKMGMPSGHHVEVKGKNEDIDRVPFLNSYIDGVTMEEATVSGILGKRATDNGLEEMILSSNHQKSVAKTQDPQTAGRITDSGQDTAFLHSKYEENPAWPGTSTHNGPNGFSQIMDETPNVSKSSPTGFGIKSAVTGGKEAVYSGVQSLRSHVLAMPGETTTPVQGSNRLPPSPLSSSTSHRVAASGSPGKSSTHASVSPASEPSRMMMMMSDPAEYSLCYIVNPVSPRMDDHGLKEICLDHLYRGCQQVNCNKNHFHLPYRWQLFILPTWMDFQDMEYIERAYCDPQIEIIVIEKHRINFKKMTCDSYPIRRLSTPSFVEKTLNSVFTTKWLWYWRNELNEYTQYGHESPSHTSSEINSAYLESFFHSCPRGVLQFHAGSQNYELSFQGMIQTNIASKTQRHVVRRPVFVSSKDVEQKRRGPDHQPVMPQADALTLFSSPQRNASTVSSNEYEFIELNNQDEEYAKISEQFKASMKQFKIVTIKRIWNQKLWDTFERKKQKMKNKTEMFLFHAVGRIHMDYICKNNFEWILHGNREIRYGKGNYFTKEAMYSHKSCSYDSRGTVMFVARVLVGSVIEGNMTLSSPPALYDSCVDTRLNPSVFVIFRKEQIYPEYVIEYMELEKEKGCIIS
13 | – | binds | Vesicle-associated membrane protein 8 (protein, UniProt O70404 1-101) MEEASGSAGNDRVRNLQSEVEGVKNIMTQNVERILSRGENLDHLRNKTEDLEATSEHFKTTSQKVARKFWWKNVKMIVIICVIVLIIVILIILFATGTIPT
14 | binds | – | Peroxiredoxin-1 (protein, UniProt P35700 1-199) MSSGNAKIGYPAPNFKATAVMPDGQFKDISLSEYKGKYVVFFFYPLDFTFVCPTEIIAFSDRADEFKKLNCQVIGASVDSHFCHLAWINTPKKQGGLGPMNIPLISDPKRTIAQDYGVLKADEGISFRGLFIIDDKGILRQITINDLPVGRSVDEIIRLVQAFQFTDKHGEVCPAGWKPGSDTIKPDVNKSKEYFSKQK

Source: article PMC12017883
